Experimental data published in PMC10620119.
Results are given in words; binding and its absence hold for the method and conditions named. Binding seen in cells or lysates may run through a third protein. Some results given as binding are weak or reduced against the parent protein; the word gives no strength. Values belong to the molecule of their own block, whether it stands above or below them.

By UniProt entry, the sequences of proteins in these tests, tags left out.
UniProt Q8CBW3: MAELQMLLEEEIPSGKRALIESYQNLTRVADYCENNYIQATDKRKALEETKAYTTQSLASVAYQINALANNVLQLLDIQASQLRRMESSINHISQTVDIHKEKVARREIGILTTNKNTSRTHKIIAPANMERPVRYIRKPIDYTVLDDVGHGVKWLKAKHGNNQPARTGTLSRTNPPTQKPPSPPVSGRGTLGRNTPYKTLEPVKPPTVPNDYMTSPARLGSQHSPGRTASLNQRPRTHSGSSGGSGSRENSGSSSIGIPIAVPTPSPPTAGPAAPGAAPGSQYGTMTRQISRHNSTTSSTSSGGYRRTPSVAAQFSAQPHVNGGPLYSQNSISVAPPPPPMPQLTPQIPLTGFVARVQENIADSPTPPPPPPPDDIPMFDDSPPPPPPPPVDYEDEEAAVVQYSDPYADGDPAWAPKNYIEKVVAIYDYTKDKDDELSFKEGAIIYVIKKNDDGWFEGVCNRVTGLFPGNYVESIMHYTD
UniProt Q9WUU8: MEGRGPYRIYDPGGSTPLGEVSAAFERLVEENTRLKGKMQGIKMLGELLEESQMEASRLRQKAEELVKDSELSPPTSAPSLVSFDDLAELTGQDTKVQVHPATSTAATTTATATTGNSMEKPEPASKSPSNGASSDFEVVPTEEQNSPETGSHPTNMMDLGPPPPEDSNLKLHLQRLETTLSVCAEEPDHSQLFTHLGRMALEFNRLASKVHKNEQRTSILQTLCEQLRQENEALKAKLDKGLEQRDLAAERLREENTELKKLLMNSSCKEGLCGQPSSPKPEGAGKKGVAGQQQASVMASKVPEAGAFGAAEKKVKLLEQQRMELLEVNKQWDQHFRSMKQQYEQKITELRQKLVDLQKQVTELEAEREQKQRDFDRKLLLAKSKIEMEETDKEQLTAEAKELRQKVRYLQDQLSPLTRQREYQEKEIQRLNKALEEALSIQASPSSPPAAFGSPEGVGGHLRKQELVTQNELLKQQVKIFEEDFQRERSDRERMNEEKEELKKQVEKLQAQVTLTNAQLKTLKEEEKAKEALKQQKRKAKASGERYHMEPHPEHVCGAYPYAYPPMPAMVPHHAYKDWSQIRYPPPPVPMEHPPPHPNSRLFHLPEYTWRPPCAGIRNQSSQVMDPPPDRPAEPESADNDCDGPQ

Target: Abelson interactor 1 (ABI1) (mouse (endogenous in NIH/3T3)) (UniProt Q8CBW3)
Experiment: co-IP; endogenous proteins in lysate of unstimulated WT NIH/3T3; lysis in 25 mM Tris-HCl pH 7.4, 150 mM NaCl, 5% glycerol, 1% NP-40; precleared with mouse IgG; 5 ug anti-ABI1 (clone 1B9, MBL) or mouse IgG1 isotype control, Protein G Dynabeads, 4 C; washes with 0.1% NP-40; western blot

binding: no binding
Molecule: TNFAIP3 interacting protein 1 (TNIP1) (from UniProt Q9WUU8 1-647)

binding: binds
B1: ELKS/RAB6-interacting/CAST family member 1 (ERC1) (protein, UniProt Q99MI1 1-1120)
chain: MYGSARSVGKVEPSSQSPGRSPRLPRSPRLGHRRTNSTGGSSGNSVGGGSGKTLSMENIQSLNAAYATSGPMYLSDHENVGAETPKSTMTLGRSGGRLPYGVRMTAMGSSPNIASSGVASDTIAFGEHHLPPVSMASTVPHSLRQARDNTIMDLQTQLKEVLRENDLLRKDVEVKESKLSSSMNSIKTFWSPELKKERALRKDEASKITIWKEQYRVVQEENQHMQMTIQALQDELRIQRDLNQLFQQDSSSRTGEPCVAELTEENFQRLHAEHERQAKELFLLRKTLEEMELRIETQKQTLNARDESIKKLLEMLQSKGLSAKATEEDHERTRRLAEAEMHVHHLESLLEQKEKENNMLREEMHRRFENAPDSAKTKALQTVIEMKDSKISSMERGLRDLEEEIQMLKSNGALSSEEREEEMKQMEVYRSHSKFMKNKVEQLKEELSSKDAQGEELKKRAAGLQSEIGQVKQELSRKDTELLALQTKLETLTNQFSDSKQHIEVLKESLTAKEQRAAILQTEVDALRLRLEEKETMLNKKTKQIQDMAEEKGTQAGEIHDLKDMLDVKERKVNVLQKKIENLQEQLRDKEKQMSSLKERVKSLQADTTNTDTALTTLEEALADKERTIERLKEQRDRDEREKQEEIDTYKKDLKDLREKVSLLQGDLSEKEASLLDIKEHASSLASSGLKKDSRLKTLEIALEQKKEECLKMESQLKKAHEATLEARASPEMSDRIQQLEREISRYKDESSKAQTEVDRLLEILKEVENEKNDKDKKIAELESLTSRQVKDQNKKVANLKHKEQVEKKKSAQMLEEARRREDSLSDSSQQLQDSLRKKDDRIEELEEALRESVQITAEREMVLAQEESARTNAEKQVEELLMAMEKVKQELESMKAKLSSTQQSLAEKETHLTNLRAERRKHLEEVLEMKQEALLAAISEKDANIALLELSSSKKKTQEEVAALKREKDRLVQQLKQQTQNRMKLMADNYEDDHFRSSRSNQTNHKPSPDQIIQPLLELDQNRSKLKLYIGHLTALCHDRDPLILRGLTPPASYNADGEQAAWENELQQMTQEQLQNELEKVEGDNAELQEFANTILQQIADHCPDILEQVVNALEESS
